Measurements reported in PubChem BioAssay AID1508597 (Cure First, 2020)
Shown is an unselected part of about 2,100 reagents. 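Calls flag viability under 80% in either arm, not effects specific to rucaparib; the reference for percent is not stated.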 Unmarked entries are inactive. A reagent listed more than once was tested more than once; the source does not tell the runs apart. Not stated in the record: the 100% reference.

Aim: 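Survival screen with siRNA in ovarian cancer cells derived from patients, with or without rucaparib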 (primary screen)
Cell system: human ovarian carcinoma lines grown from tumours: OCI-P5x (papillary serous) and OCI-C5x (clear cell)
Reagent: siRNA pool against human genes, 1.25 pmol siRNA per well
Time to read-out: 72 h or 96 h, depending on the cell culture
Treatment: rucaparib 20 µM (about IC30) or vehicle, present until read-out
Measured: 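Luminescent ATP-based viability assay read 72 or 96 h after transfection, depending on culture, given as normalised percent viability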
Direction: viability, normalised: higher = more viable cells remaining
Active means: 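a well counts as a hit if its normalised viability is under 80 percent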
Meaning of the calls: active = viability under 80%; inactive = viability 80% or more

| Target gene | PubChem SID | rucaparib or vehicle | cell line | technical replicate | viability, normalised (%) |
| --- | --- | --- | --- | --- | --- |
| EYA2 | SID405526769 | Rucaparib | OCI-C5x (clear cell) | 1 | 40 (active) |
| EYA2 | SID405526769 | Rucaparib | OCI-C5x (clear cell) | 2 | 28.5 (active) |
| EYA2 | SID405526769 | Rucaparib | OCI-C5x (clear cell) | 3 | 28.7 (active) |
| EYA2 | SID405526769 | Rucaparib | OCI-P5x (serous) | 1 | 49.9 (active) |
| EYA2 | SID405526769 | Rucaparib | OCI-P5x (serous) | 2 | 60.8 (active) |
| EYA2 | SID405526769 | Rucaparib | OCI-P5x (serous) | 3 | 33.2 (active) |
| EYA2 | SID405526769 | Vehicle | OCI-C5x (clear cell) | 1 | 41.4 (active) |
| EYA2 | SID405526769 | Vehicle | OCI-C5x (clear cell) | 2 | 39.8 (active) |
| EYA2 | SID405526769 | Vehicle | OCI-C5x (clear cell) | 3 | 46.6 (active) |
| EYA2 | SID405526769 | Vehicle | OCI-P5x (serous) | 1 | 60.1 (active) |
| EYA2 | SID405526769 | Vehicle | OCI-P5x (serous) | 2 | 56.8 (active) |
| EYA2 | SID405526769 | Vehicle | OCI-P5x (serous) | 3 | 59.1 (active) |
| RPL5 | SID405528323 | Rucaparib | OCI-C5x (clear cell) | 1 | 38.3 (active) |
| RPL5 | SID405528323 | Rucaparib | OCI-C5x (clear cell) | 2 | 46.1 (active) |
| RPL5 | SID405528323 | Rucaparib | OCI-C5x (clear cell) | 3 | 55.1 (active) |
| RPL5 | SID405528323 | Rucaparib | OCI-P5x (serous) | 1 | 74.8 (active) |
| RPL5 | SID405528323 | Rucaparib | OCI-P5x (serous) | 2 | 73.4 (active) |
| RPL5 | SID405528323 | Rucaparib | OCI-P5x (serous) | 3 | 63.4 (active) |
| RPL5 | SID405528323 | Vehicle | OCI-C5x (clear cell) | 1 | 19.6 (active) |
| RPL5 | SID405528323 | Vehicle | OCI-C5x (clear cell) | 2 | 32.3 (active) |
| RPL5 | SID405528323 | Vehicle | OCI-C5x (clear cell) | 3 | 26.3 (active) |
| RPL5 | SID405528323 | Vehicle | OCI-P5x (serous) | 1 | 48.1 (active) |
| RPL5 | SID405528323 | Vehicle | OCI-P5x (serous) | 2 | 48.3 (active) |
| RPL5 | SID405528323 | Vehicle | OCI-P5x (serous) | 3 | 48.9 (active) |
| FANCD2 | SID405526458 | Rucaparib | OCI-C5x (clear cell) | 1 | 51.6 (active) |
| FANCD2 | SID405526458 | Rucaparib | OCI-C5x (clear cell) | 1 | 47.5 (active) |
| FANCD2 | SID405526458 | Rucaparib | OCI-C5x (clear cell) | 2 | 43.8 (active) |
| FANCD2 | SID405526458 | Rucaparib | OCI-C5x (clear cell) | 2 | 58.7 (active) |
| FANCD2 | SID405526458 | Rucaparib | OCI-C5x (clear cell) | 3 | 46 (active) |
| FANCD2 | SID405526458 | Rucaparib | OCI-C5x (clear cell) | 3 | 61.2 (active) |
| FANCD2 | SID405526458 | Rucaparib | OCI-P5x (serous) | 1 | 51.6 (active) |
| FANCD2 | SID405526458 | Rucaparib | OCI-P5x (serous) | 1 | 60.3 (active) |
| FANCD2 | SID405526458 | Rucaparib | OCI-P5x (serous) | 2 | 83.8 |
| FANCD2 | SID405526458 | Rucaparib | OCI-P5x (serous) | 2 | 62.8 (active) |
| FANCD2 | SID405526458 | Rucaparib | OCI-P5x (serous) | 3 | 68.9 (active) |
| FANCD2 | SID405526458 | Rucaparib | OCI-P5x (serous) | 3 | 65.4 (active) |
| FANCD2 | SID405526458 | Vehicle | OCI-C5x (clear cell) | 1 | 48.9 (active) |
| FANCD2 | SID405526458 | Vehicle | OCI-C5x (clear cell) | 1 | 63.5 (active) |
| FANCD2 | SID405526458 | Vehicle | OCI-C5x (clear cell) | 2 | 57.3 (active) |
| FANCD2 | SID405526458 | Vehicle | OCI-C5x (clear cell) | 2 | 56.2 (active) |
| FANCD2 | SID405526458 | Vehicle | OCI-C5x (clear cell) | 3 | 51 (active) |
| FANCD2 | SID405526458 | Vehicle | OCI-C5x (clear cell) | 3 | 55.2 (active) |
| FANCD2 | SID405526458 | Vehicle | OCI-P5x (serous) | 1 | 82.3 |
| FANCD2 | SID405526458 | Vehicle | OCI-P5x (serous) | 1 | 70.4 (active) |
| FANCD2 | SID405526458 | Vehicle | OCI-P5x (serous) | 2 | 75.9 (active) |
| FANCD2 | SID405526458 | Vehicle | OCI-P5x (serous) | 2 | 54.9 (active) |
| FANCD2 | SID405526458 | Vehicle | OCI-P5x (serous) | 3 | 67.6 (active) |
| FANCD2 | SID405526458 | Vehicle | OCI-P5x (serous) | 3 | 69.1 (active) |

5 neighbouring entries from above:
| Target gene | PubChem SID | rucaparib or vehicle | cell line | technical replicate | viability, normalised (%) |
| --- | --- | --- | --- | --- | --- |
| EYA2 | SID405526769 | Rucaparib | OCI-P5x (serous) | 2 | 60.8 (active) |
| EYA2 | SID405526769 | Rucaparib | OCI-P5x (serous) | 3 | 33.2 (active) |
| EYA2 | SID405526769 | Vehicle | OCI-C5x (clear cell) | 1 | 41.4 (active) |
| EYA2 | SID405526769 | Vehicle | OCI-C5x (clear cell) | 2 | 39.8 (active) |
| EYA2 | SID405526769 | Vehicle | OCI-C5x (clear cell) | 3 | 46.6 (active) |
